Source: patent publication US20260115185A1, “QUINOLINE DERIVATIVES WHICH ACT AS KAPPA-OPIOID RECEPTOR ANTAGONISTS” (The Scripps Research Institute, priority 2023, published 2026)
The structures given here were assigned with low confidence; some may be wrong.

Protein sequences, listed by entry. Tags and fused reporters are not part of them.
UniProt P41145, whole entry: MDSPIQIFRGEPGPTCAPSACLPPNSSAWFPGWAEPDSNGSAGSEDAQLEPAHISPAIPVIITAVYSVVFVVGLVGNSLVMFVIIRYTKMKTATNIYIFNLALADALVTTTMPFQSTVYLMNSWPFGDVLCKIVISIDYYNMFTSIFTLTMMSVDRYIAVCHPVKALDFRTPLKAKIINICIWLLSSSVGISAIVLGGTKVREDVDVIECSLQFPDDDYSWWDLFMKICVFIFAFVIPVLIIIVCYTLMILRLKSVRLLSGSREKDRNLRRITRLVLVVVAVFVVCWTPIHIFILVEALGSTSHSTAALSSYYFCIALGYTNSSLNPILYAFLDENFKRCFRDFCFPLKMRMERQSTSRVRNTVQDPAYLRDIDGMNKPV
UniProt P35372, whole entry: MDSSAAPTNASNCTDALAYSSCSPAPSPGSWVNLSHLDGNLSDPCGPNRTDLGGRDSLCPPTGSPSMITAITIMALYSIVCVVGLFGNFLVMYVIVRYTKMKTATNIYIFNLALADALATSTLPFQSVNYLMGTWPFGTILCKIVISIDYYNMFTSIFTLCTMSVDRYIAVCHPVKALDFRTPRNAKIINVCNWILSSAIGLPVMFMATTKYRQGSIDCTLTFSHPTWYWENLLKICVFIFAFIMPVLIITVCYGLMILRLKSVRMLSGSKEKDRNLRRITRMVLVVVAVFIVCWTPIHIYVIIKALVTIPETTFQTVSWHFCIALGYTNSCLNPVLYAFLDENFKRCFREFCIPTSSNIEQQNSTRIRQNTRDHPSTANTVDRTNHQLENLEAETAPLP

What was measured:
[1] = biological target: kappa opioid receptor (KOR) (Homo sapiens, UniProt P41145); test: OPRKappa 1 Tango B-Arrestin Assay, antagonist mode (Tango OPRK1-bla U2OS cells, U50488 EC80 challenge); type: cell-based; settings: for Selectivity (MOR/KOR): Kappa selectivity, MOR IC50 / KOR IC50; for IC50: read-out: KOR IC50, antagonist mode, Tango OPRK1-bla U2OS cells, 6 nM U50488 challenge
mu opioid receptor (MOR) = mu opioid receptor (MOR) (Homo sapiens, UniProt P35372); test: OPRMu1 Discover X β-arrestin Assay, antagonist mode (U2OS cells, DAMGO EC80 challenge); type: cell-based; settings: read-out: MOR IC50

SMILES	Selectivity (MOR/KOR) [1]	IC50 [1] [µM]	IC50 (mu opioid receptor (MOR)) [µM]
CCc1cc(F)c2nc(N3CCN(C4CCOCC4)C[C@H]3C)c(-c3nc(C)no3)c(C)c2c1	+++ (between 100- to 1000-fold selective)	< 0.001	> 1
CCc1cc(-c2ccn(C)n2)c2nc(N3CCNC[C@H]3C)c(-c3ccn(C)n3)c(C)c2c1	++ (between 10- and 100-fold selectivity)	> 0.1	> 1
